Among the data in patent US20050084876A1 (APOXIS SA FORMERLY APOTECH RESEARCH AND DEVELOPMENT LTD A …, published 2005) are binding values, retold here.

No constants are given. Whether binding was seen depends on the method and setting. Some binding calls cover weakened binding; strength is not graded here. For some of these results: Where a sequence is shown, tags or fusion partners need not be part of it.

Assay [1] concerns the target T1, myc-marked cytoplasmic protein segment of the CD95 (Fas) death receptor (murine) (UniProt P25446).
T1 sequence (looked up): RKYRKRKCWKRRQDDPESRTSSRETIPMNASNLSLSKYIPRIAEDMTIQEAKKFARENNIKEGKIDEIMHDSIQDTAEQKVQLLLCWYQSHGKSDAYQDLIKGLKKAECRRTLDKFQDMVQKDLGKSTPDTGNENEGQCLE
The assay is described as follows: co-transfection in 293T cells, co-immune precipitation, Western blot. On the technique in general: Immunoblotting shows a protein as a band on a membrane.

Assay [2] deals with T1, myc-marked cytoplasmic protein segment of the CD95 (Fas) death receptor (murine). Briefly: co-transfection in 293T cells, co-immune precipitation.
The target is the same in assay [3]. The assay is described as follows: anti-Flag agarose immune precipitation, Western blot, co-transfected 293T cells.
In assay [4] the target is T2, CD95 (APO-1/Fas) death receptor of human Raji B cells, stimulated with agonistic anti-APO-1 antibody (human), P25445.
T2 chain: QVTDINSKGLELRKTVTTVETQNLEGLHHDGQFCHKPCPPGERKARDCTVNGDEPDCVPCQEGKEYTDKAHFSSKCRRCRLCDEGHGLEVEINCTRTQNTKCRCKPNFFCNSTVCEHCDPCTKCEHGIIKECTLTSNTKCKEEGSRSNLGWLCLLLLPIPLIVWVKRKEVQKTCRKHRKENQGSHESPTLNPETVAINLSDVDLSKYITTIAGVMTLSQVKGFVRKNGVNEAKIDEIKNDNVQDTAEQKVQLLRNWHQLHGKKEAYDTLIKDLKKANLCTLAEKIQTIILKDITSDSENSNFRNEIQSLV
The assay is described as follows: anti-APO-1 immune precipitation from 35S-marked Raji clones, 2D gel electrophoresis. To be noted: remark: other sources report otherwise.

On to “adaptor protein FADD (human) (from UniProt Q13158 1-208)”, for which the binding result in assay [1], in assay [2] and in assay [3] was “binds” throughout.

B1: adaptor protein FADD (human) (other, UniProt Q13158 1-208, looked up)
chain: MDPFLVLLHSVSSSLSSSELTELKFLCLGRVGKRKLERVQSGLDLFSMLLEQNDLEPGHTELLRELLASLRRHDLLRRVDDFEAGAAAGAAPGEEDLCAAFNVICDNVGKDWRRLARQLKVSDTKIDSIEDRYPRNLTERVRESLRIWKNTEKENATVAHLVGALRSCQMNLVADLVQEVQQARDLQNRSGAMSPMSWNSDASTSEAS
notes: also called CAP1
Take B1: in assay [4], the binding result is listed as “binds”.
